{
  "sequences": {"note": "The chains behind the UniProt entries cited, without tags or fusion partners.", "UniProt P98175": "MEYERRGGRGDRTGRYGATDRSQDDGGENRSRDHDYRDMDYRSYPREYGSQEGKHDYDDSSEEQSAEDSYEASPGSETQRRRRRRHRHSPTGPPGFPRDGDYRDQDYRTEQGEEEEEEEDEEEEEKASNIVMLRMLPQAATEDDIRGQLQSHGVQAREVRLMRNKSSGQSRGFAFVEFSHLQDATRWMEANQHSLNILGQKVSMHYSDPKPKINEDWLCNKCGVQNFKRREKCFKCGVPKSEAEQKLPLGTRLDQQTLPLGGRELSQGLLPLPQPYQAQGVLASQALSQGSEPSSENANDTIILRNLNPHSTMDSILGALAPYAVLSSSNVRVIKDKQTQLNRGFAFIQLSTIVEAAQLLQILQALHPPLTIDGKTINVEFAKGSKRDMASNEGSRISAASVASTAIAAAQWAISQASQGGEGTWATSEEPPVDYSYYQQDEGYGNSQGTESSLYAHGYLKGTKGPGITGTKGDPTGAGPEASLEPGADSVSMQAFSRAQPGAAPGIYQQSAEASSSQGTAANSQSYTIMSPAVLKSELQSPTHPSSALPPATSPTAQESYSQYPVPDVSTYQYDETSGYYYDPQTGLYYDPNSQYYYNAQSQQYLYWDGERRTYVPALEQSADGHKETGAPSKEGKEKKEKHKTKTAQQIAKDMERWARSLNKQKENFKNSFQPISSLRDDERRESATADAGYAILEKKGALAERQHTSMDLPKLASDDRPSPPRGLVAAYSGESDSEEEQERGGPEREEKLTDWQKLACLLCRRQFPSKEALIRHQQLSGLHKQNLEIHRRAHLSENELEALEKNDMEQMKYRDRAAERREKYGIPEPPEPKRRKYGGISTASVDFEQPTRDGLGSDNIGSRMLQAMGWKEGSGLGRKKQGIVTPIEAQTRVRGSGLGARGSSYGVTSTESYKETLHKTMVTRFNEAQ"},
  "source": "paper PMC12667445",
  "about": "“Targeting RBM10‐Repressed RORB Activity in Liquid Condensates Inhibits Lysosomal Biogenesis and Neuroblastoma Progression via Affecting NF‐κB Signaling” (Advanced Science, 2025)",
  "key": {"Flag‐tagged RORB": {"target": "T1, Flag‐tagged RORB (UniProt Q92753)", "T1 sequence": "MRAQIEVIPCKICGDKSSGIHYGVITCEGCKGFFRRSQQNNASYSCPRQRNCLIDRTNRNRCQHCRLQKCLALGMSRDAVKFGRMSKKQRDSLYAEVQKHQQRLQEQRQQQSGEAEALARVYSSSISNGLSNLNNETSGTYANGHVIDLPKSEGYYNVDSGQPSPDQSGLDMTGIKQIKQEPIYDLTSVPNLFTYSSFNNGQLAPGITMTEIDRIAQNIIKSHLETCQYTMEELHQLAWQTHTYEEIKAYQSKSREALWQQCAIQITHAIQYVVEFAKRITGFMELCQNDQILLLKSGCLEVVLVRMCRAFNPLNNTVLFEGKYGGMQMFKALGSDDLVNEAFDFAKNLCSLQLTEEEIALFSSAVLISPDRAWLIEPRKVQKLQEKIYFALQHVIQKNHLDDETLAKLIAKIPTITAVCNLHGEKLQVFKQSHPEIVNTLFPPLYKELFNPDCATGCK", "experiment": "co-IP; SK-N-BE(2) cells expressing Flag-tagged RORB and Myc-tagged RBM10"}, "RORB, BiFC construct": {"target": "T2, RORB, BiFC construct (UniProt Q92753)", "T2 sequence": "T1 sequence", "experiment": "split reporter; BiFC in SK-N-BE(2) cells; fluorescence within the nucleus"}, "[1]": {"target": "T3, RAR‐related orphan receptor B (RORB), endogenous (human (endogenous in SH-SY5Y, SK-N-AS, SK-N-BE(2), IMR-32)) (UniProt Q92753)", "T3 sequence": "T1 sequence", "experiment": "co-IP; endogenous proteins in SH-SY5Y and SK-N-AS cells; western blot; IgG as negative control"}},
  "note": "No constants are given. Whether binding was seen depends on the method and setting. Binding seen in cells or lysates may run through a third protein. Some binding calls cover weakened binding; strength is not graded here. For part of these data: Where a sequence is shown, tags or fusion partners need not be part of it.",
  "data": [
    {"substance": "Myc‐tagged RBM10 (from UniProt P98175 1-930)", "values": [
      {"measurement": "binding", "setting": "Flag‐tagged RORB", "result": "binds"}
    ]},
    {"substance": "RBM10, BiFC construct (from UniProt P98175 1-930)", "values": [
      {"measurement": "binding", "setting": "RORB, BiFC construct", "result": "binds"}
    ]},
    {"substance": "RNA binding motif protein 10 (RBM10), endogenous (from UniProt P98175 1-930)", "values": [
      {"measurement": "binding", "setting": "[1]", "result": "binds"}
    ]}
  ]
}
